# Test results taken from patent US20160376343A1.
# Chains of the proteins cited; added tags and fusions are not shown. Residues count along the entry.
# UniProt Q16552, residues 24-155: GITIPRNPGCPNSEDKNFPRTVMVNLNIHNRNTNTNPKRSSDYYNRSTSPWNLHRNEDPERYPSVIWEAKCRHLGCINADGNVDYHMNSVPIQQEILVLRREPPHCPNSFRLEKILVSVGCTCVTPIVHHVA
# Where a chain is given by its changes, count along the chain named. Results are given in words; binding and its absence hold for the method and conditions named. Some binding calls cover weakened binding; strength is not graded here.
# B1: V23 (Fc fusion, not shown: a dimerising Fc or GST)
# chain: LRLLDHRALVCSQPGLNCTVKNSTCLDDSWIHPRNLTPSSPKDLQIQLHFAHTQQGDLVPVAHIEWTLQTDASTLYLEGAELSVLQLNTNERLCVRFEFLSKLRHHHKRWRFTFSHFVVDPGQEYEVTVHHLPKPIPDGDPNHQSKNFLVPDCEHPRMKVTTPCMSSGSLWDPNITVETLEAHQLRVSFTLWNESTHYQILLTSFPHTENHSCFEHMHHIPAPRPEEFHQRSNVTLTLRNLKGCCRHQVQIQPFFSSCLNDCLRHSATVSCPEMPDTPEPIPDYMPLW
# B2: V25 (Fc fusion, not shown: a dimerising Fc or GST)
# chain: B1 chain with H52Y, T74I, T208M, G243R
# B3: V26 (Fc fusion, not shown: a dimerising Fc or GST)
# chain: B1 chain with N17S, T74I, L75P, T208M
# B4: V27 (Fc fusion, not shown: a dimerising Fc or GST)
# chain: B1 chain with V20I, T74I, T208M
# B5: V30 (Fc fusion, not shown: a dimerising Fc or GST)
# chain: B1 chain with T74I, H130Y, T208R
# B6: V31 (Fc fusion, not shown: a dimerising Fc or GST)
# chain: B1 chain with H52Y, T74I, T208M
# B7: V32 (Fc fusion, not shown: a dimerising Fc or GST)
# chain: B1 chain with T74I, E78K, T208M
# B8: V33 (Fc fusion, not shown: a dimerising Fc or GST)
# chain: B1 chain with N17S, T74I, N88A, T208M
# B9: V34 (Fc fusion, not shown: a dimerising Fc or GST)
# chain: B1 chain with H32Y, T74I, I200V, T208M
# B10: V35 (Fc fusion, not shown: a dimerising Fc or GST)
# chain: B1 chain with T74I, E78K, F112L, T208M
# B11: V24 (Fc fusion, not shown: a dimerising Fc or GST)
# chain: B1 chain with T74I, E78K, I200V, T208M
# Target: hIL-17A (human) (UniProt Q16552)
# Test: ELISA on captured hIL-17A, variants expressed in mammalian cells
row,Binder,binding
1,B1,binds
2,B2,binds
3,B3,binds
4,B4,binds
5,B5,binds
6,B6,binds
7,B7,binds
8,B8,binds
9,B9,binds
10,B10,binds
11,B11,binds

# Target: hIL-17A (human) (UniProt Q16552)
# Test: ELISA on plate-immobilised hIL-17A of clones expressed in mammalian cells under identical conditions, OD 450 nm; concentration not given
row,Binder,binding
1,B1,binds
2,B2,binds
3,B3,binds
4,B4,binds
5,B5,binds
6,B6,binds
7,B7,binds
8,B8,binds
9,B9,binds
10,B10,binds
